Some of the results follow.

Chains of the proteins cited; added tags and fusions are not shown. Lines headed by an entry give the natural chain unless they say otherwise; changes in a name come on top.
UniProt Q8IWF6: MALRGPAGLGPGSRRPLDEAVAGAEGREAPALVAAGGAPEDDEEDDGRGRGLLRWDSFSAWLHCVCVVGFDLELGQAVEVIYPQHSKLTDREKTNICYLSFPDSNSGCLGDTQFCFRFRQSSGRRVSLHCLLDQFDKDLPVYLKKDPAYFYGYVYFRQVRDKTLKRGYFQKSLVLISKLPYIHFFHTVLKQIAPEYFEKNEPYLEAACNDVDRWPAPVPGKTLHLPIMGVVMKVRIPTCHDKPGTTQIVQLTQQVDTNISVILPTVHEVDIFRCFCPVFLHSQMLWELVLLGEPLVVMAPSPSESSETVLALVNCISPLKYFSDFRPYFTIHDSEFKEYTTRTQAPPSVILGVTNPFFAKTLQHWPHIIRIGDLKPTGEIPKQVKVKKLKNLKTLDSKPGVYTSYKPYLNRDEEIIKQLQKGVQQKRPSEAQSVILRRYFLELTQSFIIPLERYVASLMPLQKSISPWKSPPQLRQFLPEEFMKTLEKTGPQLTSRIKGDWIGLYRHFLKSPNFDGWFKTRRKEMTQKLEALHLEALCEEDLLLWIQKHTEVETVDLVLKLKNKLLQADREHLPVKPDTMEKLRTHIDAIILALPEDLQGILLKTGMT
UniProt Q5VZ89: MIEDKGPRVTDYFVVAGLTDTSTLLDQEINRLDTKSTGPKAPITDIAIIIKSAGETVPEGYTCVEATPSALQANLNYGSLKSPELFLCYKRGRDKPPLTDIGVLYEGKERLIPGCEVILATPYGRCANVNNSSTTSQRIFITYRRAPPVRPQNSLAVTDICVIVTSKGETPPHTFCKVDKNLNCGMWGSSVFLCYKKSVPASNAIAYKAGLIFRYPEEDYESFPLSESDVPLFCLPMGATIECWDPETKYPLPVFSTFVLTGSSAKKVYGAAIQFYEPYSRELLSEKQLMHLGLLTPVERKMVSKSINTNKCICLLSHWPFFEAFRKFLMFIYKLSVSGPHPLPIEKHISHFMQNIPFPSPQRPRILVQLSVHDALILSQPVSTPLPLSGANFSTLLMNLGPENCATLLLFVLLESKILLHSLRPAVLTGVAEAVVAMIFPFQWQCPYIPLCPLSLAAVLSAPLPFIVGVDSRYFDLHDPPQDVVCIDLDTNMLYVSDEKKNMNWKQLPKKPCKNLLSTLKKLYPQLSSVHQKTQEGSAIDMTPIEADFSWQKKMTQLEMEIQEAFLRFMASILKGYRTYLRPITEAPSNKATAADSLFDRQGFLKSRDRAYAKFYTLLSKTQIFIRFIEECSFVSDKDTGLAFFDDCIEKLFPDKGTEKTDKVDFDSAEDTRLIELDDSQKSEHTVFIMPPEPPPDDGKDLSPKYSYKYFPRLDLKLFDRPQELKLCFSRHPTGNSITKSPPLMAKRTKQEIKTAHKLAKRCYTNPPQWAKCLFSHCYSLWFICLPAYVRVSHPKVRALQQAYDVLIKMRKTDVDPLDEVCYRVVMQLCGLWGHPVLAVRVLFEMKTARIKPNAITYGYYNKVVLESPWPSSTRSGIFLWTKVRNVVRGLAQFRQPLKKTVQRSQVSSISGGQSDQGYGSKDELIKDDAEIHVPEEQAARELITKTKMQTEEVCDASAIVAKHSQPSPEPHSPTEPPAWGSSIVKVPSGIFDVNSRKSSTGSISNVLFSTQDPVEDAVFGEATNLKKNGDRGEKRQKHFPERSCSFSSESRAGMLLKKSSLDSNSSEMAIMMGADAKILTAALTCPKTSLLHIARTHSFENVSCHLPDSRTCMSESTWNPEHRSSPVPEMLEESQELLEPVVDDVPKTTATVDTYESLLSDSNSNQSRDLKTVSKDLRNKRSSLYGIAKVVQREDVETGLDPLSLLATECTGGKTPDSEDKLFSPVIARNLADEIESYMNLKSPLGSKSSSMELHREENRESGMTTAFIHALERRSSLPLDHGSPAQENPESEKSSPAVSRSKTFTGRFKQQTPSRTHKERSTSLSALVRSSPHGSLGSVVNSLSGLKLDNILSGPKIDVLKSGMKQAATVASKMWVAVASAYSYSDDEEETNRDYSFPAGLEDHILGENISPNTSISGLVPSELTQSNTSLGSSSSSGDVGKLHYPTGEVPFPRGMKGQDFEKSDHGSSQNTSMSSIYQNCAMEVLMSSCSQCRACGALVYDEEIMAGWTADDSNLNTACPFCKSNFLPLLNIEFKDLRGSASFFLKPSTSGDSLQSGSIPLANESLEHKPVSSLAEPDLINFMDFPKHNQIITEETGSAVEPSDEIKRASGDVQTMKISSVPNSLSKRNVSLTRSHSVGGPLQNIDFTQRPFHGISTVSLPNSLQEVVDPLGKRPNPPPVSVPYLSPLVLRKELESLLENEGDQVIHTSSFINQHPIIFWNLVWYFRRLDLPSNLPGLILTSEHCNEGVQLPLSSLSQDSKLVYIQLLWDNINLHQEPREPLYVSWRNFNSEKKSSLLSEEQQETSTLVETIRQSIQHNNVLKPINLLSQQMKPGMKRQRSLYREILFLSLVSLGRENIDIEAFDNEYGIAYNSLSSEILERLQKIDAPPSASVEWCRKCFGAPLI
UniProt P30046: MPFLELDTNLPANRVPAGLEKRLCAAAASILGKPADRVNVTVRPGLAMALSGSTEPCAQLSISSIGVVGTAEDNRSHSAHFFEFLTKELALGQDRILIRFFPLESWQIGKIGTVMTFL
UniProt Q5TDH0: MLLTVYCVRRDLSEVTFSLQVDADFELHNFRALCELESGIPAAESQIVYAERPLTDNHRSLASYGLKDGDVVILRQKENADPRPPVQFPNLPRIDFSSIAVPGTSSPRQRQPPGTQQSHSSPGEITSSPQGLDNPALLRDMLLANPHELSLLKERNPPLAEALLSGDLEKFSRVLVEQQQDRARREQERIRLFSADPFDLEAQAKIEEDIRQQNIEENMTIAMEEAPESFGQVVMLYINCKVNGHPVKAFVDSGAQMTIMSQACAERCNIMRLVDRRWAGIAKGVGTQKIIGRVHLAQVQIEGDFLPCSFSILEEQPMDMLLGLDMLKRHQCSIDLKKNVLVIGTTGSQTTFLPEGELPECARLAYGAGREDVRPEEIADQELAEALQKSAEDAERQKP
UniProt Q16854: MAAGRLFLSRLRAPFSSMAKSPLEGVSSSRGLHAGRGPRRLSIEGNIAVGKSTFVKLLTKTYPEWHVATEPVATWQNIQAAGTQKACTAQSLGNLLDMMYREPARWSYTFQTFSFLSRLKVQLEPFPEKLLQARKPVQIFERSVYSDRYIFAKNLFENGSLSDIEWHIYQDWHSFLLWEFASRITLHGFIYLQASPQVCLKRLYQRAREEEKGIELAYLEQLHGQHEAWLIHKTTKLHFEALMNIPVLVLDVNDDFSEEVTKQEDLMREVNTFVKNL
UniProt Q8TDJ6, whole entry, looked up: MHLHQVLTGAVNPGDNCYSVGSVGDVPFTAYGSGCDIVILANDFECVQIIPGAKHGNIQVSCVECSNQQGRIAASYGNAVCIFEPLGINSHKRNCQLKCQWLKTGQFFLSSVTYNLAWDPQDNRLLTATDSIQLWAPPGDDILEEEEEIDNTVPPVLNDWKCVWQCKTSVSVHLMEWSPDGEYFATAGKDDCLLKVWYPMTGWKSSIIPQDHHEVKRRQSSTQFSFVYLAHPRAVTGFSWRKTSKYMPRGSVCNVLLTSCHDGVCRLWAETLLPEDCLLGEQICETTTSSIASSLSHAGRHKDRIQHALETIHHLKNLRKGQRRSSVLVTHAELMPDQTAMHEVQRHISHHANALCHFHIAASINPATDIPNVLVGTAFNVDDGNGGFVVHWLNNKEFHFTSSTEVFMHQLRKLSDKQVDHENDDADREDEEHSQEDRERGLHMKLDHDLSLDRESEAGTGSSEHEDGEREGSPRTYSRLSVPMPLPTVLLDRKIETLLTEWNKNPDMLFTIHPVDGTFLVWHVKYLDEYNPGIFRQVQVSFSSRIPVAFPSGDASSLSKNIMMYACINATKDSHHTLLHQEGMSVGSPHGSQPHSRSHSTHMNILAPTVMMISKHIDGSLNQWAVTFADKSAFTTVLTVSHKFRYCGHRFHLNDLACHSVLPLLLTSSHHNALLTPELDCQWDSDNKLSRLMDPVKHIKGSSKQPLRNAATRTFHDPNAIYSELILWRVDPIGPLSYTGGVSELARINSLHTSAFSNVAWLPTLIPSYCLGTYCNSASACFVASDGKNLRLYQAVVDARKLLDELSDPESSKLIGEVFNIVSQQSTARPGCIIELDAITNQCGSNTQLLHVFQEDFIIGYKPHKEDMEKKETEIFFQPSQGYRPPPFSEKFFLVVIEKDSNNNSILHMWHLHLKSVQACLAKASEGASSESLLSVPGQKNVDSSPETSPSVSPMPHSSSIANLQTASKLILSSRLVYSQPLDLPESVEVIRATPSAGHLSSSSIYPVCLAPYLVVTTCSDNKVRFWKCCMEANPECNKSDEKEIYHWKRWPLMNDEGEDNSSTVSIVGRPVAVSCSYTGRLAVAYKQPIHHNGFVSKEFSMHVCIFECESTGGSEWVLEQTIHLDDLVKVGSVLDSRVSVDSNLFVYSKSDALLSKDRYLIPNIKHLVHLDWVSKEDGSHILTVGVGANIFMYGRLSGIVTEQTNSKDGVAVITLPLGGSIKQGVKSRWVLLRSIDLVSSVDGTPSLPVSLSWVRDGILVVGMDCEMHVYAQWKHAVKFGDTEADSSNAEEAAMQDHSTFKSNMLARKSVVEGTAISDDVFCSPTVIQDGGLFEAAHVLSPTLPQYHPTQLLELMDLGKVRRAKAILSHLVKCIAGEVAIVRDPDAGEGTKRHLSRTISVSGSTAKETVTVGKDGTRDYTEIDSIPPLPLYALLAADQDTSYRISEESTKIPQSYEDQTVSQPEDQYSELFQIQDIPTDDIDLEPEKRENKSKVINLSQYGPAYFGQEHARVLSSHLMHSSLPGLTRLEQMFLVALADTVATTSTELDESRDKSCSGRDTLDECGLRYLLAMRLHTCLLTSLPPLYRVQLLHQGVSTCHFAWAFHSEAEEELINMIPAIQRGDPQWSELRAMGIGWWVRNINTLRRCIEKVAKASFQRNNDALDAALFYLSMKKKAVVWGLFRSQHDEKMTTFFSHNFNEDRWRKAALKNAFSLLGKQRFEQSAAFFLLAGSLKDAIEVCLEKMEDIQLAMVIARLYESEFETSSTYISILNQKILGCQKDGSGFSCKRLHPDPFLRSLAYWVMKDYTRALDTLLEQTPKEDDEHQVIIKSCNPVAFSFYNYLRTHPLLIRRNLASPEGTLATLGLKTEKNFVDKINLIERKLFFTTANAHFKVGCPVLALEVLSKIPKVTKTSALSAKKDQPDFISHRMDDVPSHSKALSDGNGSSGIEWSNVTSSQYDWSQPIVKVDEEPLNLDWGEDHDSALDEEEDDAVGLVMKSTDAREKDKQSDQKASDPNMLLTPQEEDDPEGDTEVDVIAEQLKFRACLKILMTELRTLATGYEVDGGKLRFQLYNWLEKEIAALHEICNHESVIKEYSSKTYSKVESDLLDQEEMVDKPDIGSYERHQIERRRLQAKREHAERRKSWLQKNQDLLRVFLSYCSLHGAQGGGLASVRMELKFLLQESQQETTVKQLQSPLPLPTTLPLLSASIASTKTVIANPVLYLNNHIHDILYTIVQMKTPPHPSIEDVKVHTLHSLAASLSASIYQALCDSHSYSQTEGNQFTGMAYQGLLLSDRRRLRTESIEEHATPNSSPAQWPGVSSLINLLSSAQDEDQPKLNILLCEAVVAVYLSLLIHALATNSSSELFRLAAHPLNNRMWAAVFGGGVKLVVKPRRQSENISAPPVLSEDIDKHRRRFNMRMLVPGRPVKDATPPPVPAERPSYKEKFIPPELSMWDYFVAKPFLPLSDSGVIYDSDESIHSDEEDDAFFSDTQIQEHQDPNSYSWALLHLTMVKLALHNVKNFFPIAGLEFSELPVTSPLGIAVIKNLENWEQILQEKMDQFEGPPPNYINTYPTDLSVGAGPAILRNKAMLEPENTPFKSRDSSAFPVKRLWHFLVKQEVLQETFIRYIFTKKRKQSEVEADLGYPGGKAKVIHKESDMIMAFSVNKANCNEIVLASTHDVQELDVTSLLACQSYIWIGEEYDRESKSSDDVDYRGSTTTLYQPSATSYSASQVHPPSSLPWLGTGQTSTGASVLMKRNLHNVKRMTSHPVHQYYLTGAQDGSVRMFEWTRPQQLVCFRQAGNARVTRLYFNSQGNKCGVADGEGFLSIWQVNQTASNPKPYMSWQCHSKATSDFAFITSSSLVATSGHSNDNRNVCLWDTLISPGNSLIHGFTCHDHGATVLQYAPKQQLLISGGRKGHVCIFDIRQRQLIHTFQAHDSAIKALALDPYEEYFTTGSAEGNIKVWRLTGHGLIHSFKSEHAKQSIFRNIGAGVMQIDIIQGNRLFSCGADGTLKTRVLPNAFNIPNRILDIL
UniProt Q9BUN8: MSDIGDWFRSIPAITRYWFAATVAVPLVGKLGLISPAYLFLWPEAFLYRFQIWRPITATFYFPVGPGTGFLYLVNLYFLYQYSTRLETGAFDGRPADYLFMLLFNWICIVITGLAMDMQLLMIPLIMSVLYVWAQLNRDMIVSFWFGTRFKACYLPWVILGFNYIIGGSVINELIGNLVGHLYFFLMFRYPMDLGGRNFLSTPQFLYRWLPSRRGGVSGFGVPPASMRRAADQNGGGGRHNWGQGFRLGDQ

Compound in this test: CN1CCc2c(c3ccccc3n2Cc2ccc(C(=O)NO)cc2)C1 [Tubastatin A]
Nature of the test: log2 fold change, soluble protein after heating vs DMSO (PISA); higher = thermal stabilisation; K562 cells, 10 uM, 30 min; active = over 0.2 and 3.5 SD of the protein, either way, in both replicates (recomputed). In a few lines: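 K562 cells at 2×10^6 cells/mL were exposed to 10 μM compound for 30 min, then aliquots were heated for 3 min across 48°C-58°C, pooled, and extracted in PBS containing 0.5% NP-40 at 4°C. The supernatant after 21,000xg for 90 min was taken as soluble protein and measured by TMTpro 16plex LC-MS/MS with channel sums equalised. Thermal stability is reported relative to control samples, with values from duplicates. Fold changes are given on a log2 scale.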
With DGCR8 (UniProt Q8WYQ5), the log2 fold change was inactive: 0.071.

For DENND6A (UniProt Q8IWF6), the log2 fold change was inactive: -0.056.

For DHX57 (UniProt Q6P158), the log2 fold change was inactive: 0.135.

For the target DHRS11 (UniProt Q6UWP2), the log2 fold change was inactive: 0.024.

As to DENR (UniProt O43583), the log2 fold change was inactive: -0.073.

Turning to DHX15 (UniProt O43143), the log2 fold change was inactive: -0.048.

Consider DEK (UniProt P35659), for which the log2 fold change is inactive: 0.022.

In the case of DENND4C isoform 7 (UniProt Q5VZ89), the log2 fold change is inactive: -0.009.

In the case of DDX21 (UniProt Q9NR30), the log2 fold change is inactive: 0.02.

For DLG3 (UniProt Q92796), the log2 fold change is inactive: -0.055.

For DENND4B (UniProt O75064), the log2 fold change is inactive: 0.01.

Consider DDHD2 (UniProt O94830), for which the log2 fold change is inactive: 0.007.

In the case of DIDO1 (UniProt Q9BTC0), the log2 fold change was inactive: 0.216.

Turning to DIP2B (UniProt Q9P265), the log2 fold change was inactive: -0.017.

On to DIS3L (UniProt Q8TF46), for which the log2 fold change was inactive: -0.036.

Regarding DDT (UniProt P30046), the log2 fold change is inactive: -0.008.

In the case of DDI2 isoform 3 (UniProt Q5TDH0), the log2 fold change is inactive: -0.011.

For DDX42 (UniProt Q86XP3), the log2 fold change is inactive: 0.021.

Regarding DICER1 (UniProt Q9UPY3), the log2 fold change is inactive: 0.262.

Consider DDX41 (UniProt Q9UJV9), for which the log2 fold change is inactive: 0.034.

As to DDX20 (UniProt Q9UHI6), the log2 fold change was inactive: -0.024.

As to DNAH9 (UniProt Q9NYC9), the log2 fold change is inactive: 0.007.

Regarding DDX19B (UniProt Q9UMR2), the log2 fold change is inactive: -0.017.

For the target DDX49 (UniProt Q9Y6V7), the log2 fold change is inactive: 0.025.

Turning to DDAH2 (UniProt O95865), the log2 fold change was inactive: -0.024.

With DHDDS isoform 2 (UniProt Q86SQ9), the log2 fold change was inactive: 0.011.

DGKZ (UniProt Q13574): the log2 fold change is inactive: 0.105.

DMTN (UniProt Q08495): the log2 fold change was inactive: 0.013.

As to DMD (UniProt P11532), the log2 fold change was inactive: 0.004.

Consider DGUOK (UniProt Q16854), for which the log2 fold change is inactive: -0.043.

Regarding DDB2 (UniProt Q92466), the log2 fold change was inactive: -0.047.

On to DNAJA2 (UniProt O60884), for which the log2 fold change is inactive: 0.025.

For DIMT1 (UniProt Q9UNQ2), the log2 fold change was inactive: 0.066.

As for DIPK2A (UniProt Q8NDZ4), the log2 fold change was inactive: 0.253.

For the target DHX8 (UniProt Q14562), the log2 fold change is inactive: -0.035.

With DFFA (UniProt O00273), the log2 fold change was inactive: -0.028.

Consider DDX23 (UniProt Q9BUQ8), for which the log2 fold change was inactive: -0.055.

In the case of DMXL2 isoform 3 (UniProt Q8TDJ6), the log2 fold change is inactive: -0.001.

Regarding DERL1 (UniProt Q9BUN8), the log2 fold change was inactive: -0.071.

Source of the values: the supplement of paper PMC10849652.
